Measurements published in paper PMC5140063.
Results are given in words; binding and its absence hold for the method and conditions named. Binding seen in cells or lysates may run through a third protein. Some results given as binding are weak or reduced against the parent protein; the word gives no strength. Where a sequence is shown, tags or fusion partners need not be part of it.

Amino acid sequences for entries named in this document (tags omitted).
UniProt P53566: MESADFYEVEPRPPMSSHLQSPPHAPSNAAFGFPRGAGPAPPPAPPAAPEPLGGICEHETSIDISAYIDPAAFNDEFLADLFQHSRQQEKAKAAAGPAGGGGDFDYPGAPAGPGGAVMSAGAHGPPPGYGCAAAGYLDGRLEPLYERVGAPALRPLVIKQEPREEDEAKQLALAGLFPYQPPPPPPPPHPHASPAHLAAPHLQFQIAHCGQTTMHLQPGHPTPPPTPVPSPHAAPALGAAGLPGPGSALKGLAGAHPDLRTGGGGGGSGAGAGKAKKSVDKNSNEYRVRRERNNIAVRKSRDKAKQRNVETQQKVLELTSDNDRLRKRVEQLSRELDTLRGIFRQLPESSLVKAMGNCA
UniProt P28033: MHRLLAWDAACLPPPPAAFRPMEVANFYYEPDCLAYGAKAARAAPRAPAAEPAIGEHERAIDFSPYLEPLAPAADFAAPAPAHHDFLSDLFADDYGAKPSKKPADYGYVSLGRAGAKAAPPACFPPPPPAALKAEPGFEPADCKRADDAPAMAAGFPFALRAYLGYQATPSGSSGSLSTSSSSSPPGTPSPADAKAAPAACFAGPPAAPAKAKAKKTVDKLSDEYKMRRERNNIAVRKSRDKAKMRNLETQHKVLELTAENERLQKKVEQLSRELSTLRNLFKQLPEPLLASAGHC

T1: SIX1 (hSix1:myc:DDK) (human) (UniProt Q15475)
T1 sequence: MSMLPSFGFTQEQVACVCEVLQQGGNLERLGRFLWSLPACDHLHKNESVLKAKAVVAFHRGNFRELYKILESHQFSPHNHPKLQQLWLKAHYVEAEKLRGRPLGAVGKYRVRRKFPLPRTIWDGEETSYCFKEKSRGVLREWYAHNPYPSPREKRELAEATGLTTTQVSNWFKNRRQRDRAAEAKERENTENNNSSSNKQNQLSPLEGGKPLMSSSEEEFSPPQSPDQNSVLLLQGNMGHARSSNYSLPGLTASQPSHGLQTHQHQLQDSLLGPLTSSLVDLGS

B1: EBF2 (mEbf2:tGFP) (protein, UniProt O08792 1-575)
chain: MFGIQDTLGRGPALKDKSLGAEMDSVRSWVRNVGVVDANVAAQSGVALSRAHFEKQPPSNLRKSNFFHFVLALYDRQGQPVEIERTAFVDFVENDKEQGNEKTNNGTHYKLQLLYSNGVRTEQDLYVRLIDSVTKQPIAYEGQNKNPEMCRVLLTHEVMCSRCCEKKSCGNRNETPSDPVIIDRFFLKFFLKCNQNCLKTAGNPRDMRRFQVVLSTTVNVDGHVLAVSDNMFVHNNSKHGRRARRLDPSEATPCIKAISPSEGWTTGGAMVIIIGDNFFDGLQVVFGTMLVWSELITPHAIRVQTPPRHIPGVVEVTLSYKSKQFCKGAPGRFIYTALNEPTIDYGFQRLQKVIPRHPGDPERLAKEMLLKRAADLVEALYGTPHNNQDIILKRAADIAEALYSVPRNPSQIPALSSSPAHSGMMGINSYGSQLGVSISESTQGNNQGYIRNTSSISPRGYSSSSTPQQSNYSTSSNSMNGYSNVPMANLGVPGSPGFLNGSPTGSPYGIMSSSPTVGSSSTSSILPFSSSVFPAVKQKSAFAPVIRPQGSPSPACSSGNGNGFRAMTGLVVPPM

Each molecule was assayed against T1, SIX1 (hSix1:myc:DDK) (human) (assay: co-IP; HEK293 cells transfected with tagged constructs and harvested after three days; lysis buffer 50 mM Tris-HCl pH7.4, 150 mM NaCl, 1 mM EDTA, 0.1% NP40; 500 μg total protein incubated overnight at 4°C with anti-FLAG M2 affinity gel (SIX1:myc:DDK as bait); washes with lysis buffer and RIPA buffers; Western analysis).

binding | Molecule
binds | C/EBPα (Cebpa:HA) (from UniProt P53566 1-359)
binds | C/EBPβ (mCebpb) (from UniProt P28033 1-296)
binds | B1
